Results as given in the supplement of paper PMC10849652.
The list shows a part of the results. Residues, ends and D or L forms follow the SMILES beside them. *: point of attachment. Cbz = O=C(OCc1ccccc1)*

Chains of the proteins cited; added tags and fusions are not shown. Lines headed by an entry give the natural chain unless they say otherwise; changes in a name come on top.
UniProt Q13191, whole entry, looked up: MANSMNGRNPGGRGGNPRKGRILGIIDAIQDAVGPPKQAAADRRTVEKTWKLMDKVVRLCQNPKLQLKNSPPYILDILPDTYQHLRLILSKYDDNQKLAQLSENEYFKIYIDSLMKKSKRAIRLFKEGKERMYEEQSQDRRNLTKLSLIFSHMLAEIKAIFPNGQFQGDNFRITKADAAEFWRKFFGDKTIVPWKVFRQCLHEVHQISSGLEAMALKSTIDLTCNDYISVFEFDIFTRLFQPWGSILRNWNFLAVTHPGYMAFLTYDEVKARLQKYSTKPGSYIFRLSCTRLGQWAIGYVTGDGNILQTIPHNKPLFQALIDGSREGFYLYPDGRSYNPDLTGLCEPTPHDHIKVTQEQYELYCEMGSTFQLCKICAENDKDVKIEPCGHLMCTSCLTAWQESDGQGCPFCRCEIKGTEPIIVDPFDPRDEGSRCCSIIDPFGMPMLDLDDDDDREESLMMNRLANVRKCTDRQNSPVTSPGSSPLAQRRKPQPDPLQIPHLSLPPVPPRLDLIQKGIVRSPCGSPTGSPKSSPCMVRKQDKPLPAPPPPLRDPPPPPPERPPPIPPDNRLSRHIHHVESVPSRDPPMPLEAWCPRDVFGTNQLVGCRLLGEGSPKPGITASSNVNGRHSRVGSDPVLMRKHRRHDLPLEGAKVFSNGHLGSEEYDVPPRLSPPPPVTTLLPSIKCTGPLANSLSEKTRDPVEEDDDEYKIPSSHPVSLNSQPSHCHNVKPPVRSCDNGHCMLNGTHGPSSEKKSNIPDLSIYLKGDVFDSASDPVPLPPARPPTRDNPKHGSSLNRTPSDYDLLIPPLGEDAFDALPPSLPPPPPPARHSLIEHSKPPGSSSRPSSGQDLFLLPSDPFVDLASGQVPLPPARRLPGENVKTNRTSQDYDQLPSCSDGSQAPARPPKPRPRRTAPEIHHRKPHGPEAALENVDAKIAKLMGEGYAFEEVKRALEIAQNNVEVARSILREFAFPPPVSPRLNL
UniProt Q9UJX2, whole entry, looked up: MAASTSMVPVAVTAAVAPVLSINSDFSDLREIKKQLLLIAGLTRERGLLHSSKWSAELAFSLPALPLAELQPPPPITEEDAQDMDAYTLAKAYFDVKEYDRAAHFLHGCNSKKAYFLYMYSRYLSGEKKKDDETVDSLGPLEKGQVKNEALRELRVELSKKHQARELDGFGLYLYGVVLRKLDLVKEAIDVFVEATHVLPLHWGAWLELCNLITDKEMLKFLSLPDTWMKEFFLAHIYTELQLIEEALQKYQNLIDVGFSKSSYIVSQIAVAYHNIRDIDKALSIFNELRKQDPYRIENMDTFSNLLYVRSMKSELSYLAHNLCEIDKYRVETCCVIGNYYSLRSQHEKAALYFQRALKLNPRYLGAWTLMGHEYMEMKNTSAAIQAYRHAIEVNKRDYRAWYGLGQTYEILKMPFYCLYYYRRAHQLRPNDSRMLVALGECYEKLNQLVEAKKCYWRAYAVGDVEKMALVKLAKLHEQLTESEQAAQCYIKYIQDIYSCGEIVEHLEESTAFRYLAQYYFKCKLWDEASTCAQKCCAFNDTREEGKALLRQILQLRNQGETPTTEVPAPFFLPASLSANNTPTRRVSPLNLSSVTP
UniProt Q9H6F5: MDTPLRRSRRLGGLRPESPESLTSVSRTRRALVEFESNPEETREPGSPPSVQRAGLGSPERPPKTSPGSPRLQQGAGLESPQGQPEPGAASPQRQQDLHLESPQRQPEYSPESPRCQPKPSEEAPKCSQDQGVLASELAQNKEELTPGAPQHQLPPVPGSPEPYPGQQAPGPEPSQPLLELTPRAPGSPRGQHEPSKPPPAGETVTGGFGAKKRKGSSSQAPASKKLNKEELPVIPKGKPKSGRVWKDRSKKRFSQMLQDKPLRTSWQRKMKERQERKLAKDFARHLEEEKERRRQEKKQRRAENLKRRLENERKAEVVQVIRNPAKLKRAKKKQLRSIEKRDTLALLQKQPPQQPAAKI
UniProt P08174: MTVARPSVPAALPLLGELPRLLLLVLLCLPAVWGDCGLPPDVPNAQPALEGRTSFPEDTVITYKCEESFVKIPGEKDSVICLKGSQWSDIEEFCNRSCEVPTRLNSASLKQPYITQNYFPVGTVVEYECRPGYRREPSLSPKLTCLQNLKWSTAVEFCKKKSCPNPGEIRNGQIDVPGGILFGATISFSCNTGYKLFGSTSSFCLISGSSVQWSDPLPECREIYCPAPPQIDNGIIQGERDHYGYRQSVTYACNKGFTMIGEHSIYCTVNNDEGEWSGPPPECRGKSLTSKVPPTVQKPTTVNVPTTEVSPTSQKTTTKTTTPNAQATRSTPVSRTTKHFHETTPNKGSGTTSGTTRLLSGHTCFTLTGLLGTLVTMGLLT
UniProt Q4G0I0: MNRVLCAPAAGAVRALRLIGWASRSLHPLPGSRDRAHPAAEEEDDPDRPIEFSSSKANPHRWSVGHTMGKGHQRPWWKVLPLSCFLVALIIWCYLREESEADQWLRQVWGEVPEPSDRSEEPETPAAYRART
UniProt P50990: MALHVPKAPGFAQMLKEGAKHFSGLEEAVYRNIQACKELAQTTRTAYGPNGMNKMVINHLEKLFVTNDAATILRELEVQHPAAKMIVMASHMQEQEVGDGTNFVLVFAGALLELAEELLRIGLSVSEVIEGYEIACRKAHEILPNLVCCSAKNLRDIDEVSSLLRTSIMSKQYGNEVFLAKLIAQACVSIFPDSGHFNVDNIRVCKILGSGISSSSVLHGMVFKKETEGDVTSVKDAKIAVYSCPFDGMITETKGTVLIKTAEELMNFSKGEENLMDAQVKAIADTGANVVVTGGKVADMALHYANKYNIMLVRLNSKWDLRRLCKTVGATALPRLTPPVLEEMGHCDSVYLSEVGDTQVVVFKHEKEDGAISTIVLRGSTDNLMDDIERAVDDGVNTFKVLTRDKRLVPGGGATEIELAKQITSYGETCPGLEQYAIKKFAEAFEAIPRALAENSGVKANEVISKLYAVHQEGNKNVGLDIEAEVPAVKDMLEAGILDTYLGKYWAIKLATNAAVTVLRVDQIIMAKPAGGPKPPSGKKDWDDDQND
UniProt Q96ER9: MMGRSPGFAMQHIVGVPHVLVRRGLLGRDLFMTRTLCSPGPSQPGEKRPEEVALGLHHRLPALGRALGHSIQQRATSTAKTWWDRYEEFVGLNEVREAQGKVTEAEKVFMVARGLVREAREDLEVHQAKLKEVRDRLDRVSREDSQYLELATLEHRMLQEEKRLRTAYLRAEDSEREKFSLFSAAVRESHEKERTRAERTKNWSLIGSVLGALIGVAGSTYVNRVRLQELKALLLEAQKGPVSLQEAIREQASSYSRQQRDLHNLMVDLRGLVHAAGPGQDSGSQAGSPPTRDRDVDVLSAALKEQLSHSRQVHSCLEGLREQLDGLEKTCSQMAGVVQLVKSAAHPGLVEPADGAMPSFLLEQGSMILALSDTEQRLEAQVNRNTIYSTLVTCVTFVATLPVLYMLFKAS
UniProt Q8IVM0: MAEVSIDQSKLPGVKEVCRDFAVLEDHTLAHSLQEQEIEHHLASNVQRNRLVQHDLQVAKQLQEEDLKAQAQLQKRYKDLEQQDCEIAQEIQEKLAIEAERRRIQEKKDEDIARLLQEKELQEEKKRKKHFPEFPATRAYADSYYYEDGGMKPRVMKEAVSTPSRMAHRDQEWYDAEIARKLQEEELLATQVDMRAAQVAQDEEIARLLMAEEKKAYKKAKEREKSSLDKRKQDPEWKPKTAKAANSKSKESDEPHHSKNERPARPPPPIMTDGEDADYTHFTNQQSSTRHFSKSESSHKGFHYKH
UniProt P78371: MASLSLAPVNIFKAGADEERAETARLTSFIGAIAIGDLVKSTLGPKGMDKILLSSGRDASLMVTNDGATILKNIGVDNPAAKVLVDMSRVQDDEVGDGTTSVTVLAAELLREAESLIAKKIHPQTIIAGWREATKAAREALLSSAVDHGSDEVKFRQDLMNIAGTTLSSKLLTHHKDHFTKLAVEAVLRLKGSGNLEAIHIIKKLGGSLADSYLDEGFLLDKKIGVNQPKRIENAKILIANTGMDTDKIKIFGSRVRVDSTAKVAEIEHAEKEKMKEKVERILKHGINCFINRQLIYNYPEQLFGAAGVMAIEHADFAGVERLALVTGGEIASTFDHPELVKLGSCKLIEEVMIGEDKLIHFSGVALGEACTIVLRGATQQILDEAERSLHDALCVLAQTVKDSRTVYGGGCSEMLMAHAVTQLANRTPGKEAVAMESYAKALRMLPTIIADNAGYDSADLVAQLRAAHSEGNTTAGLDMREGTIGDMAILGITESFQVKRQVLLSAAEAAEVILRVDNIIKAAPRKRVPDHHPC
UniProt Q9P031: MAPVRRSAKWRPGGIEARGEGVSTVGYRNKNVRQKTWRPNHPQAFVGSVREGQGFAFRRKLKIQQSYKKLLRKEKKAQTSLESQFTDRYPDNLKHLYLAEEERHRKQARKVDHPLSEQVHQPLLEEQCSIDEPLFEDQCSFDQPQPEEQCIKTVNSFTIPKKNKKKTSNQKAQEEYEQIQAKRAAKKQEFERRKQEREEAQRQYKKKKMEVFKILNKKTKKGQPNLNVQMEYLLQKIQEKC
UniProt Q9H6E4: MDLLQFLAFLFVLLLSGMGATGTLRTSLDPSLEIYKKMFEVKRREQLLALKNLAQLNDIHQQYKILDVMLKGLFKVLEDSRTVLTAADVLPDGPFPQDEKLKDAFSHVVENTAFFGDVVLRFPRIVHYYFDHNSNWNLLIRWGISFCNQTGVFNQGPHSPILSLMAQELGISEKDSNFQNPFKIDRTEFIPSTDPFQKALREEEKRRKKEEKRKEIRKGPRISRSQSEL
UniProt Q96BQ5: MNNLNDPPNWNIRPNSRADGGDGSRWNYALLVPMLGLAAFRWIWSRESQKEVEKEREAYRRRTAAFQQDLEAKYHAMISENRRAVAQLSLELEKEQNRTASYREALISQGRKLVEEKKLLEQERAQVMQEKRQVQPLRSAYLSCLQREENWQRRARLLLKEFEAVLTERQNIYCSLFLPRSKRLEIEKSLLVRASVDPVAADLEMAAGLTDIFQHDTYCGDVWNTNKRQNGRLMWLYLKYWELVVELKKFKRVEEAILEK
UniProt Q9Y5K6, whole entry, looked up: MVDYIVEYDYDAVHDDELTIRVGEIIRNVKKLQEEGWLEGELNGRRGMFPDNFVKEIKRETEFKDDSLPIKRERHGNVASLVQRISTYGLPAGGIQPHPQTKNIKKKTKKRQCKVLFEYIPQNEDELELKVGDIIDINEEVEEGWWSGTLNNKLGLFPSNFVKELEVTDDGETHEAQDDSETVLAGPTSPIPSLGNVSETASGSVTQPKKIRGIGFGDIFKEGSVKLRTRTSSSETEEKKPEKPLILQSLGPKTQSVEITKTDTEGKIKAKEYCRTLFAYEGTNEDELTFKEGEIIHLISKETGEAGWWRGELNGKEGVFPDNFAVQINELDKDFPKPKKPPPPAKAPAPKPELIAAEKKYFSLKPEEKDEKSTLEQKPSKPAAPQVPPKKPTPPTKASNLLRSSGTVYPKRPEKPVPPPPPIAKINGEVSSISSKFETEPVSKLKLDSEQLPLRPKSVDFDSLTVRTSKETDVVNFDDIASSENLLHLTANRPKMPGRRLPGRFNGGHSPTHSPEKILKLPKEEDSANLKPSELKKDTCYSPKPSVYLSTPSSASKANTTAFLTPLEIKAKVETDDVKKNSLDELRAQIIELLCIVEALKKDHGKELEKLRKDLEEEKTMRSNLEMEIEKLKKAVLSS
UniProt P0C221: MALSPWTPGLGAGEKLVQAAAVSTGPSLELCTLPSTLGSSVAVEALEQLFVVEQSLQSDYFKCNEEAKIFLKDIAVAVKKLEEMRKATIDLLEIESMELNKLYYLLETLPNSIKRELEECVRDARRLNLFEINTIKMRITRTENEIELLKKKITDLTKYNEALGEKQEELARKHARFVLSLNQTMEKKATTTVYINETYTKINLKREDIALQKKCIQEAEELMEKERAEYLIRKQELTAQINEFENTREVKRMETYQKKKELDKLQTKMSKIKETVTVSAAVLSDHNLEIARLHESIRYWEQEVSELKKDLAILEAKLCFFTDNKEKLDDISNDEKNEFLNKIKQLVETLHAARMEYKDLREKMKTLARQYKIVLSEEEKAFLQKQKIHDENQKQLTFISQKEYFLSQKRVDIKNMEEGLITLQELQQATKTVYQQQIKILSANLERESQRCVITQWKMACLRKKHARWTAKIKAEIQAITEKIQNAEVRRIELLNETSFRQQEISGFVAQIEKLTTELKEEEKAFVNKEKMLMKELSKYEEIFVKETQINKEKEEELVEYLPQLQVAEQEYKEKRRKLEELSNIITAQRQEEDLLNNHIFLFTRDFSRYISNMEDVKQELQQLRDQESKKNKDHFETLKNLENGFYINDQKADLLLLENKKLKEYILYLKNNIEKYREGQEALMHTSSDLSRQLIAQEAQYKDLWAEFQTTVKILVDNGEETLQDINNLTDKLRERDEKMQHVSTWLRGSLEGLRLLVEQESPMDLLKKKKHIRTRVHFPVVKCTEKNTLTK

Experiments:
Assay in all cases: log2 fold change, soluble protein after heating vs DMSO (PISA); higher = thermal stabilisation; K562 cells, 10 uM, 30 min; active = over 0.2 and 3.5 SD of the protein, either way, in both replicates (recomputed)
erlotinib = compound: C#Cc1cccc(Nc2ncnc3cc(OCCOC)c(OCCOC)cc23)c1 [erlotinib]
How it was run: (§1)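 Values are thermal stability changes relative to control samples and are taken from duplicates. They are stated as log2 fold changes. Before quantification by TMTpro 16plex LC-MS/MS with equalised channel sums, K562 cells at 2×10^6 cells/mL were treated with 10 μM compound for 30 min, heated in aliquots for 3 min across 48°C-58°C, pooled, extracted in PBS with 0.5% NP-40 at 4°C, and centrifuged at 21,000xg for 90 min to give the soluble supernatant.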

[1] = compound: C/C(=N\NC(=O)C1=CC(=CC=C1)S(=O)(=O)N2CCOCC2)/C3=C(C=CC(=C3)Cl)O
How it was run: as §1

[2] = compound: C1=CC(=C(C=C1Cl)C2=NC3=NC=CN=C3C(=N2)NC4=CC=NC=C4)F
How it was run: as §1

[3] = compound: C1=CC(=CC=C1C2=NC3=C(N2)C=C(C=C3)C(=O)N)OC4=CC=C(C=C4)Cl
How it was run: as §1

[4] = compound: C1=CC2=C(C=CC(=C2)/C=C\3/C(=O)NC(=NCC4=CC=CS4)S3)N=C1
How it was run: as §1

[5] = compound: C1=CC2=NC=CN=C2C=C1/C=C/3\C(=O)NC(=O)S3
How it was run: as §1

[6] = compound: C1=CC=C(C=C1)C2=NC(=C(N2)C3=CC=NC=C3)C4=CC(=C(C=C4)Cl)O
How it was run: as §1

[7] = compound: C1=CC=C2C(=C1)C3=NNC4=CC=CC(=C43)C2=O
How it was run: as §1

[8] = compound: C1CCN(C1)C(=O)NC2=CC=CC(=C2)NC3=NC=C(C(=N3)NCCC4=CN=CN4)Br
How it was run: as §1

[9] = compound: C1CN(CCC1(CC2=CC=C(C=C2)Cl)N)C3=NC=NC4=C3C=CN4
How it was run: as §1

IRAK-1-4 Inhibitor I = compound: C1COCCN1CCN2C3=CC=CC=C3N=C2NC(=O)C4=CC(=CC=C4)[N+](=O)[O-] [IRAK-1-4 Inhibitor I]
How it was run: as §1

ibrutinib = compound: C=CC(=O)N1CCC[C@@H](n2nc(-c3ccc(Oc4ccccc4)cc3)c3c(N)ncnc32)C1 [ibrutinib]
How it was run: as §1

[10] = compound: CC(=O)c1cnc2ccc(-c3cc(Cl)c(O)c(Cl)c3)nc2c1N[C@H]1CC[C@H](CN(C)C)CC1
How it was run: as §1

ralimetinib = compound: CC(C)(C)Cn1c(N)nc2ccc(-c3[nH]c(C(C)(C)C)nc3-c3ccc(F)cc3)nc21 [ralimetinib]
How it was run: as §1

[11] = compound: CC(C)(O)CC(=O)NCCn1ccc2ncnc(Nc3ccc(Oc4cccc(C(F)(F)F)c4)c(Cl)c3)c21
How it was run: as §1

[12] = compound: CC(C)C1=C2N=C(C=C(N2N=C1)NCC3=CC=CC=C3)NCCCCCCN
How it was run: as §1

[13] = compound: CC(C)C[C@@H](C=O)NC(=O)[C@H](CC(C)C)NC(=O)[C@H](CC(C)C)NC(=O)OCc1ccccc1
How it was run: as §1

pinometostat = compound: CC(C)N(C[C@H]1O[C@@H](n2cnc3c(N)ncnc32)[C@H](O)[C@@H]1O)[C@H]1C[C@@H](CCc2nc3cc(C(C)(C)C)ccc3[nH]2)C1 [pinometostat]
How it was run: as §1

[14] = compound: CC1=C(C2=C(C=C1)C(=O)C3=CC=CC=C3N2CCCN)C
How it was run: as §1

[15] = compound: CC1=C(C(CC(=O)N1)C2=CC=C(C=C2)C(F)(F)F)C(=O)NC3=C(C=C4C(=C3)C=NN4)F
How it was run: as §1

Measured: log2 fold change

CBR1 (UniProt P16152)
inactive: erlotinib 0.011 | [1] 0.066 | [2] 0.115 | [3] 0.008 | [4] -0.009 | [5] 0.028 | [6] 0.186 | [7] -0.038 | [8] -0.027 | [9] 0.057 | IRAK-1-4 Inhibitor I 0.023 | ibrutinib 0.009 | [10] 0.031 | ralimetinib 0.097 | [11] -0.007 | [12] 0.061 | [13] -0.088 | pinometostat -0.035 | [14] 0.028

CBLB (UniProt Q13191)
inactive: erlotinib -0.018 | [1] 0.015 | [2] 0.017 | [3] 0.021 | [4] -0.055 | [5] 0.034 | [6] -0.059 | [7] 0.094 | [8] -0.065 | [9] -0.009 | IRAK-1-4 Inhibitor I 0.036 | ibrutinib 0.066 | [10] -0.102 | ralimetinib -0.107 | [11] -0.026 | [12] 0.003 | [13] 0.018 | pinometostat -0.022 | [15] -0.002 | [14] -0.032

CDC23 (UniProt Q9UJX2)
inactive: erlotinib -0.049 | [1] 0.004 | [2] -0.061 | [3] 0.047 | [4] 0.032 | [5] -0.025 | [6] -0.031 | [7] -0.038 | [8] 0.005 | [9] -0.067 | IRAK-1-4 Inhibitor I -0.022 | ibrutinib 0.217 | [10] -0.028 | ralimetinib 0 | [11] 0.016 | [12] -0.049 | [13] 0.062 | pinometostat 0.077 | [15] -0.018 | [14] -0.08

CAVIN1 (UniProt Q6NZI2)
active: [14] -0.437
inactive: erlotinib -0.06 | [1] -0.085 | [2] -0.309 | [3] 0.121 | [4] -0.04 | [5] -0.002 | [6] 0.274 | [7] 0.07 | [8] 0.062 | [9] -0.137 | IRAK-1-4 Inhibitor I -0.064 | ibrutinib -0.002 | [10] 0.011 | ralimetinib 0.393 | [11] 0 | [12] -0.156 | [13] -0.011 | pinometostat 0.2

CCDC86 (UniProt Q9H6F5)
inactive: erlotinib -0.133 | [1] -0.196 | [2] -0.396 | [3] 0.027 | [4] -0.071 | [5] 0.028 | [6] -0.124 | [7] 0.077 | [8] 0.086 | [9] -0.008 | IRAK-1-4 Inhibitor I -0.224 | ibrutinib 0.004 | [10] 0.28 | ralimetinib 0.099 | [11] 0.009 | [12] -0.01 | [13] 0.166 | pinometostat 0.191 | [15] -0.028 | [14] -0.547

CD55 isoform 7 (UniProt P08174)
inactive: erlotinib -0.065 | [1] -0.002 | [2] -0.031 | [3] 0.036 | [4] -0.121 | [5] -0.015 | [6] 0.011 | [7] -0.062 | [8] -0.079 | [9] 0.008 | IRAK-1-4 Inhibitor I -0.043 | ibrutinib 0.071 | [10] -0.008 | ralimetinib 0.016 | [11] 0.037 | [12] 0.155 | [13] -0.012 | pinometostat 0.019 | [14] -0.054

Random excerpt: 2 entries already listed
CD55 isoform 7 (UniProt P08174)
inactive: erlotinib -0.065 | [1] -0.002 | [2] -0.031 | [3] 0.036 | [4] -0.121 | [5] -0.015 | [6] 0.011 | [7] -0.062 | [8] -0.079 | [9] 0.008 | IRAK-1-4 Inhibitor I -0.043 | ibrutinib 0.071 | [10] -0.008 | ralimetinib 0.016 | [11] 0.037 | [12] 0.155 | [13] -0.012 | pinometostat 0.019 | [14] -0.054

CCDC86 (UniProt Q9H6F5)
inactive: erlotinib -0.133 | [1] -0.196 | [2] -0.396 | [3] 0.027 | [4] -0.071 | [5] 0.028 | [6] -0.124 | [7] 0.077 | [8] 0.086 | [9] -0.008 | IRAK-1-4 Inhibitor I -0.224 | ibrutinib 0.004 | [10] 0.28 | ralimetinib 0.099 | [11] 0.009 | [12] -0.01 | [13] 0.166 | pinometostat 0.191 | [15] -0.028 | [14] -0.547

(further entries)

CCSMST1 (UniProt Q4G0I0)
inactive: erlotinib -0.075 | [1] -0.046 | [2] 0.058 | [3] -0.05 | [4] 0.033 | [5] 0.169 | [6] 0.114 | [7] 0.036 | [8] -0.046 | [9] 0.014 | IRAK-1-4 Inhibitor I -0.012 | ibrutinib -0.084 | [10] 0.032 | ralimetinib -0.049 | [11] -0.007 | [12] 0.074 | [13] 0.113 | pinometostat 0 | [15] -0.027 | [14] 0.133

CCT8 (UniProt P50990)
inactive: erlotinib -0.025 | [1] -0.005 | [2] 0.047 | [3] -0.016 | [4] 0.006 | [5] 0.002 | [6] 0.027 | [7] 0.013 | [8] 0 | [9] 0.005 | IRAK-1-4 Inhibitor I 0.003 | ibrutinib -0.016 | [10] -0.003 | ralimetinib -0.019 | [11] -0.014 | [12] 0.014 | [13] -0.019 | pinometostat -0.023 | [15] 0.019 | [14] 0.02

CCDC51 (UniProt Q96ER9)
inactive: erlotinib 0 | [1] -0.009 | [2] 0.151 | [3] -0.047 | [4] 0.033 | [5] -0.009 | [6] 0.024 | [7] 0.033 | [8] 0 | [9] 0.057 | IRAK-1-4 Inhibitor I 0.058 | ibrutinib 0.038 | [10] -0.051 | ralimetinib -0.03 | [11] -0.167 | [12] -0.036 | [13] -0.062 | pinometostat 0.002 | [15] -0.006 | [14] 0.005

CCDC50 (UniProt Q8IVM0)
inactive: erlotinib 0.001 | [1] 0.044 | [2] -0.013 | [3] 0.021 | [4] -0.002 | [5] 0.023 | [6] -0.078 | [7] -0.021 | [8] 0.017 | [9] 0.049 | IRAK-1-4 Inhibitor I 0.034 | ibrutinib 0.077 | [10] 0.003 | ralimetinib -0.096 | [11] -0.016 | [12] 0.026 | [13] 0.009 | pinometostat -0.018 | [15] -0.008 | [14] -0.007

CCT2 (UniProt P78371)
inactive: erlotinib -0.036 | [1] -0.011 | [2] 0.034 | [3] -0.008 | [4] -0.026 | [5] -0.01 | [6] 0.028 | [7] 0.036 | [8] 0.007 | [9] 0.017 | IRAK-1-4 Inhibitor I 0.021 | ibrutinib -0.017 | [10] 0.026 | ralimetinib 0.008 | [11] -0.018 | [12] 0.013 | [13] -0.022 | pinometostat -0.028 | [15] 0.014 | [14] 0.007

CCDC59 (UniProt Q9P031)
inactive: erlotinib -0.118 | [1] -0.127 | [2] -0.192 | [3] 0.071 | [4] -0.136 | [5] -0.014 | [6] -0.091 | [7] 0.069 | [8] 0.054 | [9] -0.027 | IRAK-1-4 Inhibitor I -0.083 | ibrutinib -0.051 | [10] 0.224 | ralimetinib 0.28 | [11] -0.073 | [12] 0.093 | [13] 0.197 | pinometostat 0.233 | [14] -0.468

CCDC134 (UniProt Q9H6E4)
inactive: erlotinib -0.001 | [1] -0.035 | [2] -0.068 | [3] 0 | [4] -0.063 | [5] 0.025 | [6] 0.015 | [7] -0.029 | [8] 0.028 | [9] 0.001 | IRAK-1-4 Inhibitor I 0.033 | ibrutinib -0.014 | [10] 0.016 | ralimetinib -0.023 | [11] 0.045 | [12] -0.042 | [13] 0.006 | pinometostat 0.062 | [15] 0.032 | [14] -0.061

CCDC127 (UniProt Q96BQ5)
inactive: erlotinib -0.017 | [1] 0.012 | [2] 0.053 | [3] -0.043 | [4] 0.018 | [5] 0.027 | [6] -0.073 | [7] -0.02 | [8] -0.047 | [9] -0.004 | IRAK-1-4 Inhibitor I 0.063 | ibrutinib -0.004 | [10] -0.007 | ralimetinib 0.006 | [11] -0.115 | [12] 0.049 | [13] -0.081 | pinometostat -0.096 | [15] 0.006 | [14] -0.031

CD2AP (UniProt Q9Y5K6)
inactive: erlotinib -0.03 | [1] 0.001 | [2] 0.061 | [3] 0.003 | [4] -0.005 | [5] 0.003 | [6] 0 | [7] -0.002 | [8] 0.004 | [9] -0.001 | IRAK-1-4 Inhibitor I 0.038 | ibrutinib -0.013 | [10] -0.056 | ralimetinib -0.042 | [11] -0.012 | [12] 0 | [13] 0.017 | pinometostat -0.017 | [15] -0.019 | [14] 0.025

CCDC175 (UniProt P0C221)
inactive: erlotinib 0.077 | [1] -0.049 | [3] -0.025 | [4] 0.022 | [5] -0.013 | [6] -0.01 | [7] 0.004 | IRAK-1-4 Inhibitor I -0.044 | ibrutinib -0.04 | [10] -0.045 | ralimetinib 0.06 | [12] 0.051 | [13] 0.001 | pinometostat 0.035 | [15] -0.006
